Entries after “also recorded” stand apart in the source; their conditions may differ.

In this data set the test system is C57BL/6J mice. The data set is described as follows: Context- and tone-dependent Pavlovian fear conditioning, icv. injection. The format is in vivo. To be noted: daily icv. injection 5 μg/mouse for 7 days. The text has this: A fundamental type of learning is associative learning that can be analyzed in rodents using the pavlovian fear conditioning paradigm (Fendt and Fanselow, 1999; Fischer et al., 2003). As fear conditioning is a robust and commonly used method to analyze learning and allows to delineate the involvement of distinct brain structures in the learning process, we choose this paradigm to investigate the effect of reveratrol on learning. The principle of Pavlovian fear conditioning is as follows. During the training procedure mice are exposed to a novel context (context 1), consisting of an observation chamber with defined lightning, odor, background noise and geometry. After exploring this novel environment for 180 s the animals are exposed to a tone for 30 s followed by a mild electric foot shock for 2 s. On the basis of associative learning mice display aversive freezing behavior during a memory test consisting of re-expose to the conditioning context 24 h after the training. […] Tone-dependent fear memories can be analyzed by presenting the tone in context 2. Freezing is an inborn behavior that rodents express in threatening situations. […] Therefore, freezing behavior is commonly used to quantify the amount of learning. […] The animals were trained by context- and tone-dependent fear conditioning 24 h after the last icv. injection and memory retention was analyzed the following day (see FIG. 1A). […]

Consider `Oc1ccc(C=Cc2cc(O)cc(O)c2)cc1` [resveratrol, 3,5,4′-tri-hydroxystilbene], for which the “explorative behavior (distance traveled during training)” value is “did not affect” and the “pain sensation (activity during electric foot shock)” value is given as “did not affect; also recorded: not affected”.

The record behind these values is patent US9241916B2, “Cognitive performance with sirtuin activators” (President and Fellows of Harvard College, priority 2005, dated 2016).
